Experimental data reported in publication PMC7819943, “Rice protein-binding microarrays: a tool to detect cis-acting elements near promoter regions in rice”.
This is one part of the list.

Each sequence was assayed against T1, OsSMF1 (Oryza sativa, UniProt Q6ZLB0 1-436) (assay: protein-binding microarray (RPBM); PBS, 2% BSA, 51.3 ng/ul salmon testes DNA, 50 uM zinc acetate, 200 nM TF, 25 C, 1 h; high values mean tight binding). Settings: protein: recombinant; tags: N-terminal polyhistidine and DsRed monomer fusion (pET32a); chain copies: 2; label: CyDye5-dUTP incorporated in the synthesized complementary strand; 3' TTTTT single-stranded linker to array surface; dsDNA, one strand shown.
T1 sequence: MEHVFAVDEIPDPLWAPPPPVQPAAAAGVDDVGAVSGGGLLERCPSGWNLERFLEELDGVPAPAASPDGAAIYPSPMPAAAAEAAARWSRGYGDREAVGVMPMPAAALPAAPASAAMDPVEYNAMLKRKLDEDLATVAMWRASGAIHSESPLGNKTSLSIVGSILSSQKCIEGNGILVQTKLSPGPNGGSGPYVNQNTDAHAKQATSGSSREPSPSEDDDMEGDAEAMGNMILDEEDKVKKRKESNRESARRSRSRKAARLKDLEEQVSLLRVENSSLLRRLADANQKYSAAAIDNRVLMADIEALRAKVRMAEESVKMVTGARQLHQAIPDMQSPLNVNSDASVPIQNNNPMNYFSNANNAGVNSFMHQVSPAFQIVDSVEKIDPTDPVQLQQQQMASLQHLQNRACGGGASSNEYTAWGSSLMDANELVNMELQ
Summary of the method: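 The binding signal is fluorescence intensity per array feature (arbitrary units). Readings came from an Axon 4000B scanner after a washed, 2% BSA-blocked, double-stranded custom Agilent array had been incubated for 1 h at 25 °C with 200 nM protein and 50 µM zinc acetate. The protein was a Ni–NTA-purified transcription factor fused N-terminally to polyhistidine and DsRed, expressed in E. coli BL21-CodonPlus.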

| Sequence | binding signal |
| --- | --- |
| ACCTTAGTGTAGTTGACAAACATCTGGCCTTGCTATATTTCGGAGTCACCTAGTGCAG | 3440 fluorescence intensity (a.u.) |
| ATTTGTAAACAATGTTACTATCACTTTATCAGATGAAGAACGGAGTCACCTAGTGCAG | 34600 fluorescence intensity (a.u.) |
| CATACATCAATCAGTTCTTGATTTGACCGGCATTGTATTGCGGAGTCACCTAGTGCAG | 3220 fluorescence intensity (a.u.) |
| GTAAACTTATTCGATATACATTCCATGCATGGAAGTATCACGGAGTCACCTAGTGCAG | 3390 fluorescence intensity (a.u.) |
| GTTAGCGTGGCATGCCACGTCATCTCACGAAGCGGGTTAGCGGAGTCACCTAGTGCAG | 18100 fluorescence intensity (a.u.) |
| GGCAAACCGCAAAATGGTGGTGGCTCCTCTCCTCGCCGCCCGGAGTCACCTAGTGCAG | 25700 fluorescence intensity (a.u.) |
| GCATGCTAGAACCTCCATACTCATACTCGTAAAAGTAAGTCGGAGTCACCTAGTGCAG | 3260 fluorescence intensity (a.u.) |
| TGCCAAGGTACCATCAACATCGAGCTGCTGATGGCCCCTACGGAGTCACCTAGTGCAG | 3410 fluorescence intensity (a.u.) |
| CCTCCATAGAGGGATCAACTACGGTGAGGTGGAGTGCTTTCGGAGTCACCTAGTGCAG | 3960 fluorescence intensity (a.u.) |
| TTTAGATGGCGGTTTTGGCTGACGTGGCGTCTACGTGACGCGGAGTCACCTAGTGCAG | 30700 fluorescence intensity (a.u.) |
| GCTTTGAGATAAACAAAGGGTCAAGTGCCGCGTGAGGTGGCGGAGTCACCTAGTGCAG | 4470 fluorescence intensity (a.u.) |
| GCTTGGTCCATACCTTGTTTTCCTATCATCCACTGTCAATCGGAGTCACCTAGTGCAG | 3160 fluorescence intensity (a.u.) |
| GACCTAAAGTCCTAAACTAACCAAGTAGCCAGTCAACTGGCGGAGTCACCTAGTGCAG | 4320 fluorescence intensity (a.u.) |
| AATATAAAGCCCACGCAACCATCCACCTAGCATAAGGGTTCGGAGTCACCTAGTGCAG | 3310 fluorescence intensity (a.u.) |
| CACCTCAGCCGTGGTACAGAGAATCCTCACCAAGCCACCACGGAGTCACCTAGTGCAG | 3320 fluorescence intensity (a.u.) |
| TGCGCGCGCCGGCCTACGTGTGTAGGCTCCGTCAGCAGCGCGGAGTCACCTAGTGCAG | 6850 fluorescence intensity (a.u.) |
| GCGTGCCGTTTCCCTGCACAAGCCCAACCCCACACATATCCGGAGTCACCTAGTGCAG | 11600 fluorescence intensity (a.u.) |
| AACTAGTGTAATAGTCACCGTCAAGATTGTCAGGTTGGCGCGGAGTCACCTAGTGCAG | 3500 fluorescence intensity (a.u.) |
| ATTTTGGTCAAATTTAAACTAATCTAAGTTTGACTAATTTCGGAGTCACCTAGTGCAG | 8280 fluorescence intensity (a.u.) |
| GCACGCGGCGTCTCCACGTGTCCAGCCCGCGGCTGCTGCGCGGAGTCACCTAGTGCAG | 7950 fluorescence intensity (a.u.) |
| GCCGTGGGCCCCACATGTCATTGGAACAGCGTGTGTCTCCCGGAGTCACCTAGTGCAG | 4580 fluorescence intensity (a.u.) |

| Sequence | binding signal |
| --- | --- |
| CATGATATATCATCAATTTGGCTTACTTGGCATCTTATTTCGGAGTCACCTAGTGCAG | 3670 fluorescence intensity (a.u.) |
| TATGGACAGTGCCACCTCCTTCTTCCCGGTTGCTTCAGAGCGGAGTCACCTAGTGCAG | 4730 fluorescence intensity (a.u.) |
| GATGGGTCAGATGATGACGACGACGATGATGAAGATGACGCGGAGTCACCTAGTGCAG | 4070 fluorescence intensity (a.u.) |
| CTACATCAGCTATATCTATTGTTGCTCTTACACTAAATTACGGAGTCACCTAGTGCAG | 23700 fluorescence intensity (a.u.) |
| CTTCTTCCATCCAACCCATTGCATGGTGTATTTTCCATATCGGAGTCACCTAGTGCAG | 3410 fluorescence intensity (a.u.) |
| CCAAAGTTTGTATACACGTATGCAAAGTTTGTATACACGTCGGAGTCACCTAGTGCAG | 8060 fluorescence intensity (a.u.) |
| TCCCTTTCATGTCAGCATCGGATTGCGTCCGAACAAAGTCCGGAGTCACCTAGTGCAG | 4270 fluorescence intensity (a.u.) |
| ACATGGCCACGTGGGAGTTTCACCTAGCTAGTCGTGTATACGGAGTCACCTAGTGCAG | 7090 fluorescence intensity (a.u.) |
| GTCAAGTTGCCATGTCATCAAATACTGCCCATAATACTGCCGGAGTCACCTAGTGCAG | 19900 fluorescence intensity (a.u.) |
| TGCATTGCACACACCCATCTTGATAAGTACGTCATGCTTACGGAGTCACCTAGTGCAG | 4000 fluorescence intensity (a.u.) |
| AGCACCGCAGATAACATGGTCTGACGCTATCTCAGATTTCCGGAGTCACCTAGTGCAG | 4150 fluorescence intensity (a.u.) |
| GGCGGAGAGGGTATGGACAACAGCGCCGAGGTGGCGTGGCCGGAGTCACCTAGTGCAG | 5480 fluorescence intensity (a.u.) |
| TGGAACTAAATCTTAGTCAGAATGACACGAAAGGATCGAACGGAGTCACCTAGTGCAG | 3240 fluorescence intensity (a.u.) |
| GCCGTGACGTCCCCGCTGACGCCTCTCTCCGTTGGACGCGCGGAGTCACCTAGTGCAG | 7740 fluorescence intensity (a.u.) |
| CCCGCCACGTGTCCGACCCGCACCCCGCCCGGTCGGTCCCCGGAGTCACCTAGTGCAG | 11000 fluorescence intensity (a.u.) |
| GAGAGGGGATGGGGTTGAGTGGTGGGGCCTATGATTGGCACGGAGTCACCTAGTGCAG | 4090 fluorescence intensity (a.u.) |
| ATCAGTGACGGTAAGGATAGTATCATTGGGTGTGTTCGGTCGGAGTCACCTAGTGCAG | 3150 fluorescence intensity (a.u.) |
| ACCGGTGTTCAGAGCCTAGTTCAGAACAGGAATATCACCACGGAGTCACCTAGTGCAG | 4240 fluorescence intensity (a.u.) |
| CATTGCCCCAAAAGTACAGAGAACACATAGGGCCTATTTACGGAGTCACCTAGTGCAG | 7330 fluorescence intensity (a.u.) |
| TTAACGTTGTAAGCCCATGAGGAGAGTCGAATCCAGATCACGGAGTCACCTAGTGCAG | 3270 fluorescence intensity (a.u.) |
| TAATTCCAACGACACACGCTTGGTCAGAGCTCAATATGCCCGGAGTCACCTAGTGCAG | 4610 fluorescence intensity (a.u.) |

Some of the entries so far, bar-delimited.
Sequence | binding signal
AACTAGTGTAATAGTCACCGTCAAGATTGTCAGGTTGGCGCGGAGTCACCTAGTGCAG | 3500 fluorescence intensity (a.u.)
ATTTTGGTCAAATTTAAACTAATCTAAGTTTGACTAATTTCGGAGTCACCTAGTGCAG | 8280 fluorescence intensity (a.u.)
GCACGCGGCGTCTCCACGTGTCCAGCCCGCGGCTGCTGCGCGGAGTCACCTAGTGCAG | 7950 fluorescence intensity (a.u.)
GCCGTGGGCCCCACATGTCATTGGAACAGCGTGTGTCTCCCGGAGTCACCTAGTGCAG | 4580 fluorescence intensity (a.u.)
CATGATATATCATCAATTTGGCTTACTTGGCATCTTATTTCGGAGTCACCTAGTGCAG | 3670 fluorescence intensity (a.u.)
TATGGACAGTGCCACCTCCTTCTTCCCGGTTGCTTCAGAGCGGAGTCACCTAGTGCAG | 4730 fluorescence intensity (a.u.)
GATGGGTCAGATGATGACGACGACGATGATGAAGATGACGCGGAGTCACCTAGTGCAG | 4070 fluorescence intensity (a.u.)
CTACATCAGCTATATCTATTGTTGCTCTTACACTAAATTACGGAGTCACCTAGTGCAG | 23700 fluorescence intensity (a.u.)
CTTCTTCCATCCAACCCATTGCATGGTGTATTTTCCATATCGGAGTCACCTAGTGCAG | 3410 fluorescence intensity (a.u.)
CCAAAGTTTGTATACACGTATGCAAAGTTTGTATACACGTCGGAGTCACCTAGTGCAG | 8060 fluorescence intensity (a.u.)
